According to patent US20150315275A1:
Changes are numbered by the printed parent chain. Names may count otherwise. Results are given in words; binding and its absence hold for the method and conditions named. Some binding calls cover weakened binding; strength is not graded here.

The chains behind the UniProt entries cited, without tags or fusion partners. Where a name states a change or a piece, a line headed by the entry shows the natural chain unless it says otherwise.
UniProt Q7Z7D3: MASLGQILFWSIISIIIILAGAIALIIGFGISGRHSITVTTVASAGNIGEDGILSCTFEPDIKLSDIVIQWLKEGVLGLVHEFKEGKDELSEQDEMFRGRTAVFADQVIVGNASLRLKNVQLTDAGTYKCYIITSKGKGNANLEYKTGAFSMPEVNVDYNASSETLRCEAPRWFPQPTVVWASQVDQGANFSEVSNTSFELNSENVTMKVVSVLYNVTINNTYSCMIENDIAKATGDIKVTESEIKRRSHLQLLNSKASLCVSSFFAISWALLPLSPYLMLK
UniProt Q7TSP5: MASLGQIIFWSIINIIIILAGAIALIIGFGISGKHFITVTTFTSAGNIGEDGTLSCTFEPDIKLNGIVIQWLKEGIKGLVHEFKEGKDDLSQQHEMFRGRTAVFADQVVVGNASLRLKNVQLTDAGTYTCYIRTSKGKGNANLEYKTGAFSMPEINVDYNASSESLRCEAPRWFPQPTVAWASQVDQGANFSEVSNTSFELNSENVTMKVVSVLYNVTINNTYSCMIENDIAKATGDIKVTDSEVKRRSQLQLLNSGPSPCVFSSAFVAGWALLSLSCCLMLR

T1: human B7-H4 (human) (UniProt Q7Z7D3)
T1 sequence: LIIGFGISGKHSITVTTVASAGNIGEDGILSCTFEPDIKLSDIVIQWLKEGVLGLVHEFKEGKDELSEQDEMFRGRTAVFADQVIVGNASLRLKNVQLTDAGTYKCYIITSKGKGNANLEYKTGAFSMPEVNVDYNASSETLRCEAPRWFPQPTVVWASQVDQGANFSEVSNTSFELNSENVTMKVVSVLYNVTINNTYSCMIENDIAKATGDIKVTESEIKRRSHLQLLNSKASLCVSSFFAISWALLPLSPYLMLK

B1: humanized 6H3 variant 4 (antibody, V domains shown)
VH: EVQLVQSGAEMKKPGASVKVSCKASGYTFTDYYMNWVRQAPGQSLEWIGVINPYNGDTTYNQKFQGRVTVTVDKSATTAYMELSSLRSEDTAVYYCARYPESTYWGQGTLVTVSS
VL: DVVMTQSPLSLPVTLGQPASISCRSSQSLVHINGNTYLHWYQQRPGQSPRVLIYKVSNRFSGVPDRFSGSGSGTDFTLKISRVEAEDVGVYFCSQSTHVPLTFGGGTKVEIK
B2: humanized 6H3 variant 5 (antibody, V domains shown)
VH: B1 VH with M11V, S44G, V50I, T59S, Q65K, V70L, A76T, T77S
VL: B1 VL with Q42L, R50K
B3: humanized 6H3 variant 6 (antibody, V domains shown)
VH: B1 VH with I48M, T71A
VL: B1 VL with Q42L, R50K
B4: humanized 6H3 variant 7 (antibody, V domains shown)
VH: B1 VH
VL: B1 VL with Q42L, R50K
B5: humanized 6H3 variant 9 (antibody, V domains shown)
VH: B1 VH with M11V, S44G, V50I, T59S, Q65K, V70L, A76T, T77S
VL: B1 VL with V2I, S7T, G105Q
B6: humanized 6H3 variant 10 (antibody, V domains shown)
VH: B1 VH with I48M, T71A
VL: B1 VL with V2I, S7T, G105Q
B7: humanized 6H3 variant 11 (antibody, V domains shown)
VH: B1 VH
VL: B1 VL with V2I, S7T, G105Q
B8: humanized 6H3 variant 12 (antibody, V domains shown)
VH: B1 VH with M11V, S44G, V50I, T59S, Q65K, V70L, A76T, T77S
VL: B1 VL with V2I, S7T, Q42L, R50K, G105A
B9: humanized 6H3 variant 13 (antibody, V domains shown)
VH: B1 VH with I48M, T71A
VL: B1 VL with V2I, S7T, Q42L, R50K, G105A
B10: humanized 6H3 variant 14 (antibody, V domains shown)
VH: B1 VH
VL: B1 VL with V2I, S7T, Q42L, R50K, G105A
B11: humanized 6H3 variant 1 (antibody, V domains shown)
VH: QVQLVQSGAEVKKPGASVKVSCKASGYTFTDYYMHWVRQAPGQGLEWMGIINPYNGDTSYAQKFQGRVTMTRDTSTSTVYMELSSLRSEDTAVYYCARYPESTYWGQGTLVTVSS
VL: B1 VL
B12: humanized 6H3 variant 2 (antibody, V domains shown)
VH: B1 VH with M11V, S44G, V50I, T59S, Q65K, V70L, A76T, T77S
VL: B1 VL
B13: humanized 6H3 variant 3 (antibody, V domains shown)
VH: B1 VH with I48M, T71A
VL: B1 VL
B14: humanized 6H3 variant 8 (antibody, V domains shown)
VH: B11 VH
VL: B1 VL with V2I, S7T, G105Q
B15: anti-human B7-H4 antibody 2H9 (antibody, V domains shown)
VH: EVQLVESGGNLVKPGGSLKLSCAASGFTFSNSAMSWVRQTPEKRLEWVATISDGGRYTYYPDNVKGRFTISRDNAKNNLYLQMSHLKSEDTALYYCARDRPHWYFDVWGTGATVTVSS
VL: DIVLTQSPASLAVSLGQRATISCRASESIDNYGISFMHWYQQKPGQPPKLLIYRASNLESGIPARFSGSGSRTDFTLTINPVETDDVATYFCQQSDEGRTFGGGTKLEIK
B16: anti-human B7-H4 antibody 2D1 (antibody, V domains shown)
VH: EVQLVESGGGLVKPGGSLKLSCAASGFTFNSHGMSWVRQTPEKRLDWVATISDGGTYTYYPVNVKGRFTISRDNAKNNLYLQMSHLKSEDTAMYYCARDGGGGAYWGQGTLVTVSA
VL: DVVMTQTPLSLPVSLGDQASISCRSSHSLVHSNGNTYLHWYLQKPGQSPNLLIYIVSNRFSGVPDRFSGSGSGTDFTLKISRVEAEDLGVYFCSQSTHVPPTFGAGTKLELK
B17: 2E11 (antibody, V domains shown)
VH: EVKLVESEGGLVQPGSSMKLSCTASGFKFTDYYMAWVRQVPEKGLEWVANINYDGSSTYYLDSLKSRFIISRDNAKNILYLQMNSLKSEDTATYYCARKGYFDYWGQGTTLTVSS
VL: DIVMSQSPSSLAVSVGEKVTVSCKSSQSLLYSTNQRTYLAWFQQKPGQSPKLLIYWASTRESGVPDRFTGSGSGTDFTLTISSVKAEDLAVYYCQQYYNYPLTFGTGTKLELK
B18: humanized 6H3 combination H1A L1C (antibody, V domains shown)
VH: B11 VH
VL: B1 VL with Q42L, R50K
B19: humanized 6H3 combination H1A L2C (antibody, V domains shown)
VH: B11 VH
VL: B1 VL with V2I, S7T, Q42L, R50K, G105A
B20: humanized 6H3 combination H1B L1B (antibody, V domains shown)
VH: B11 VH with Q1E, H35N, A61N, M70L, R72V, T74K
VL: B1 VL
B21: humanized 6H3 combination H1B L1C (antibody, V domains shown)
VH: B11 VH with Q1E, H35N, A61N, M70L, R72V, T74K
VL: B1 VL with Q42L, R50K
B22: humanized 6H3 combination H1B L2B (antibody, V domains shown)
VH: B11 VH with Q1E, H35N, A61N, M70L, R72V, T74K
VL: B1 VL with V2I, S7T, G105Q
B23: humanized 6H3 combination H1B L2C (antibody, V domains shown)
VH: B11 VH with Q1E, H35N, A61N, M70L, R72V, T74K
VL: B1 VL with V2I, S7T, Q42L, R50K, G105A

Biological target: mouse B7-H4ECD mIgG2a Fc fusion protein (mouse) (UniProt Q7TSP5)
Test: ELISA, mouse B7-H4ECD mIgG2a Fc fusion coated

binding, binds:
B1
B2
B3
B4
B5
B6
B7
B8
B9
B10
B11
B12
B13
B14

Biological target: B7-H4 ECD fusion protein (column 'ECD' of Table 4) (human) (UniProt Q7Z7D3)
Test: ELISA, fusion protein coated; Table 4, ECD

binding, binds:
B15
B16

Biological target: B7-H4-Ig fusion protein (human)
Test: ELISA, B7-H4 Ig coated on the plate, conditioned medium of the hybridoma, HRP goat anti-mouse

binding, binds:
B15
B16
B17

Biological target: B7-H4-Ig fusion protein (human)
Test: non-competitive ELISA (earlier example), recalled here; target as printed in this sentence

binding, binds:
B1
B2
B3
B4
B5
B6
B7
B8
B9
B10
B12
B13

Biological target: B7-H4ECD his-tagged protein (Sinobiologics) (human) (UniProt Q7Z7D3)
Test: ELISA, B7-H4ECD his-tagged protein coated

binding, binds:
B1
B2
B3
B4
B5
B6
B7
B8
B9
B10
B12
B13

Biological target: B7-H4 fusion protein Variant 4: ECD-hIgG4 (human) (UniProt Q7Z7D3)
Test: ELISA, B7-H4 Fc fusion protein immobilized at 1 µg/ml, mouse antibody titrated, anti-mouse Ig HRP

binding, binds:
B15
B16

Biological target: T1, human B7-H4 (human)
Test: assay not described

binding, binds:
B18
B19
B20
B21
B22
B23

Biological target: B7-H4-Ig fusion protein (human)
Test: competition ELISA on B7-H4-Ig

binding, binds:
B1
B2
B3
B4
B5
B6
B7
B8
B9
B10
B12
B13
